Record: PubChem BioAssay AID1259425 (University of Nebraska Medical Center, 2018)

- Assay: 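Compare each knockdown with KSR1 silencing using changes in marker transcripts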 (primary screen)
- Cells: HCT116 human colon cancer cells
- Reagent: siRNA pool against human genes, 50 nM siRNA
- Measurement: 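mRNA of six signature genes measured together by branched-DNA assay after 50 nM siRNA pool, blank removed, divided by geometric mean of two housekeeping genes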
- Reading the numbers: BNIP3L mRNA: higher = more BNIP3L transcript after knockdown; NDRG1 mRNA: higher = more NDRG1 transcript after knockdown; BNIP3 mRNA: higher = more BNIP3 transcript after knockdown; ALDOC mRNA: higher = more ALDOC transcript after knockdown
This is a random part of about 14,000 deposited reagents. A reagent listed more than once was tested more than once; the source does not tell the runs apart. Further read-outs or replicates are left out here. No sequences are given here. The record does not give: the time to read-out.

| target gene | BNIP3L mRNA, set 1 | NDRG1 mRNA, set 1 | BNIP3 mRNA, set 1 | ALDOC mRNA, set 1 |
| --- | --- | --- | --- | --- |
| AP1M2 | 0.15 | 0.199 | 0.303 | 0.0345 |
| MRPS23 | 0.224 | 0.299 | 0.18 | 0.0223 |
| TM4SF5 | 0.143 | 0.0792 | 0.358 | 0.0159 |
| TDRD1 | 0.281 | 0.125 | 0.76 | 0.203 |
| CLP1 | 0.175 | 0.261 | 0.259 | 0.0167 |
| PIK3CB | 0.146 | 0.319 | 0.519 | 0.0136 |
| PIK3CB | 0.132 | 0.307 | 0.342 | 0.0249 |

Part of the list above, set out differently.
{"target gene":"CLP1","BNIP3L mRNA, set 1":0.175,"NDRG1 mRNA, set 1":0.261,"BNIP3 mRNA, set 1":0.259,"ALDOC mRNA, set 1":0.0167}
{"target gene":"PIK3CB","BNIP3L mRNA, set 1":0.146,"NDRG1 mRNA, set 1":0.319,"BNIP3 mRNA, set 1":0.519,"ALDOC mRNA, set 1":0.0136}
{"target gene":"PIK3CB","BNIP3L mRNA, set 1":0.132,"NDRG1 mRNA, set 1":0.307,"BNIP3 mRNA, set 1":0.342,"ALDOC mRNA, set 1":0.0249}

Continued:
| target gene | BNIP3L mRNA, set 1 | NDRG1 mRNA, set 1 | BNIP3 mRNA, set 1 | ALDOC mRNA, set 1 |
| --- | --- | --- | --- | --- |
| SMU1 | 0.15 | 0.438 | 0.352 | 0.0447 |
| RPS2P45 | 0.174 | 0.271 | 0.256 | 0.0194 |
| FXYD5 | 0.0507 | 0.297 | 0.254 | 0.0218 |
| NSA2 | 0.101 | 0.283 | 0.449 | 0.0118 |
| BCL2A1 | 0.12 | 0.123 | 0.316 | 0.0199 |
| LIN7C | 0.0647 | 0.274 | 0.414 | 0.00602 |
| RAB4A | 0.164 | 0.805 | 0.371 | 0.0605 |
| HDDC2 | 0.0957 | 0.124 | 0.3 | 0.0216 |
| PYCARD | 0.074 | 0.0435 | 0.273 | 0.0142 |
| RPL35A | 0.379 | 0.764 | 0.691 | 0.0079 |
| UBE2I | 0.182 | 0.477 | 0.349 | 0.0303 |
| CTSH | 0.0462 | 0.196 | 0.287 | 0.0217 |
| AKR1A1 | 0.126 | 0.106 | 0.417 | 0.0551 |
